# Laboratory results as given in the supplement of paper PMC8728848.
# This is one part of the list.
# B1: PX15642A-pgi-501-20-501 (Parabacteroides gingivalis) (protein)
# chain: CELDRDPEGKDFQQPYTSFVQTKQNRDGLYALLRNTENPRMHFYQELQSDMYCTTITDGNSLAPFVNWDLGILNDHGRADEDEVSGIAGYYFVYNRLNQQANAFVNNTEAALQNQVYKNSTEIANAKSFLAEGKVLQALAIWRLMDRFSFHESVTEVNSGAKDLGVILLKEYNPGYIGPRATKAQCYDYILSRLSEAIEVLPENRESVLYVSRDYAYALRARIYLALGEYGKAAADAKMVVDKYPLIGAADASEFENIYRSDANNPEIIFRGFASATLGSFTATTLNGAAPAGKDIKYNPSAVPFQWVVDLYENEDFRKSVYIAKVVKKDKGYLVNKFLEDKAYRDVQDKPNLKVGARYFSVAEVYLILVESALQTGDTPTAEKYLKALSKARGAEVSVVNMEALQAERTRELIGEGSRLRDMVRWSIPNNHDAFETQPGLEGFANTTPLKAQAPVGFYAYTWEFPQRDRQTNPQLIKNWPI
# Key:
# Assay in all cases: glycan array binding signal (z-score within array); higher = stronger binding
# Conditions in all cases: glycan notation: IUPAC condensed, linker removed
# [1] = molecular target: Gal(b1-3)GlcNAc(b1-6)[Gal(b1-3)]GalNAc
# In short: (§1)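 Glycan array binding is given as a within-array Z-score, which can be read as non-binding when negative. The arrays, 3228 of them, came from the Consortium for Functional Glycomics database and were retained only where the protein sequence was available. Z-scores were averaged across arrays of the same protein sequence at different concentrations or buffers and across linkers.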
# Gal(b1-3)GlcNAc6S = molecular target: Gal(b1-3)GlcNAc6S
# In short: as §1
# [2] = molecular target: Gal(b1-3)[Fuc(a1-4)]GlcNAc
# In short: as §1
# [3] = molecular target: Gal(b1-3)[Fuc(a1-4)]GlcNAc(b1-2)Man
# In short: as §1
# [4] = molecular target: Gal(b1-3)[Fuc(a1-4)]GlcNAc(b1-2)Man(a1-3)[Gal(b1-3)[Fuc(a1-4)]GlcNAc(b1-2)Man(a1-6)]Man(b1-4)GlcNAc(b1-4)[Fuc(a1-6)]GlcNAc
# In short: as §1
# [5] = molecular target: Gal(b1-3)[Fuc(a1-4)]GlcNAc(b1-3)Gal(b1-3)[Fuc(a1-4)]GlcNAc
# In short: as §1
# [6] = molecular target: Gal(b1-3)[Fuc(a1-4)]GlcNAc(b1-3)Gal(b1-4)[Fuc(a1-3)]GlcNAc
# In short: as §1
# [7] = molecular target: Gal(b1-3)[Fuc(a1-4)]GlcNAc(b1-6)GalNAc
# In short: as §1
# [8] = molecular target: Gal(b1-3)[GlcNAc(b1-6)]GalNAc
# In short: as §1
# [9] = molecular target: Gal(b1-3)[Neu5Ac(a2-6)]GalNAc
# In short: as §1
# [10] = molecular target: Gal(b1-3)[Neu5Ac(a2-6)]GlcNAc(b1-4)Gal(b1-4)Glc
# In short: as §1
# [11] = molecular target: Gal(b1-3)[Neu5Ac(b2-6)]GalNAc
# In short: as §1
# Gal(b1-4)Gal = molecular target: Gal(b1-4)Gal
# In short: as §1
# [12] = molecular target: Gal(b1-4)GalNAc(a1-3)[Fuc(a1-2)]Gal(b1-4)GlcNAc
# In short: as §1
# [13] = molecular target: Gal(b1-4)GalNAc(b1-3)[Fuc(a1-2)]Gal(b1-4)GlcNAc
# In short: as §1
# Gal(b1-4)Glc = molecular target: Gal(b1-4)Glc
# In short: as §1
# Gal(b1-4)Glc6S = molecular target: Gal(b1-4)Glc6S
# In short: as §1
# Gal(b1-4)GlcNAc = molecular target: Gal(b1-4)GlcNAc
# In short: as §1
# [14] = molecular target: Gal(b1-4)GlcNAc(a1-6)Gal(b1-4)GlcNAc
# In short: as §1
# Gal(b1-4)GlcNAc(b1-2)Man = molecular target: Gal(b1-4)GlcNAc(b1-2)Man
# In short: as §1
# [15] = molecular target: Gal(b1-4)GlcNAc(b1-2)Man(a1-3)Man(b1-4)GlcNAc(b1-4)GlcNAc
# In short: as §1
# [16] = molecular target: Gal(b1-4)GlcNAc(b1-2)Man(a1-3)[Gal(b1-4)GlcNAc(b1-2)Man(a1-6)]Man(b1-4)GlcNAc(b1-4)GlcNAc
# In short: as §1
# [17] = molecular target: Gal(b1-4)GlcNAc(b1-2)Man(a1-3)[Gal(b1-4)GlcNAc(b1-2)Man(a1-6)]Man(b1-4)GlcNAc(b1-4)[Fuc(a1-6)]GlcNAc
# In short: as §1
# [18] = molecular target: Gal(b1-4)GlcNAc(b1-2)Man(a1-3)[Gal(b1-4)GlcNAc(b1-2)Man(a1-6)][Gal(b1-4)GlcNAc(b1-4)]Man(b1-4)GlcNAc(b1-4)[Fuc(a1-6)]GlcNAc
# In short: as §1
# [19] = molecular target: Gal(b1-4)GlcNAc(b1-2)Man(a1-3)[Gal(b1-4)GlcNAc(b1-2)Man(a1-6)][GlcNAc(b1-4)]Man(b1-4)GlcNAc(b1-4)[Fuc(a1-6)]GlcNAc
# In short: as §1
# [20] = molecular target: Gal(b1-4)GlcNAc(b1-2)Man(a1-3)[GlcNAc(b1-2)Man(a1-6)]Man(b1-4)GlcNAc(b1-4)GlcNAc
# In short: as §1
# [21] = molecular target: Gal(b1-4)GlcNAc(b1-2)Man(a1-3)[GlcNAc(b1-4)][Gal(b1-4)GlcNAc(b1-2)Man(a1-6)]Man(b1-4)GlcNAc(b1-4)GlcNAc
# In short: as §1
# [22] = molecular target: Gal(b1-4)GlcNAc(b1-2)Man(a1-3)[Man(a1-6)]Man(b1-4)GlcNAc(b1-4)GlcNAc
# In short: as §1
# [23] = molecular target: Gal(b1-4)GlcNAc(b1-2)Man(a1-6)Man(b1-4)GlcNAc(b1-4)GlcNAc
# In short: as §1
# [24] = molecular target: Gal(b1-4)GlcNAc(b1-2)Man(a1-6)[GlcNAc(b1-2)Man(a1-3)]Man(b1-4)GlcNAc(b1-4)GlcNAc
# In short: as §1
# [25] = molecular target: Gal(b1-4)GlcNAc(b1-2)Man(a1-6)[Man(a1-3)]Man(b1-4)GlcNAc(b1-4)GlcNAc
# In short: as §1
# [26] = molecular target: Gal(b1-4)GlcNAc(b1-2)[Gal(b1-4)GlcNAc(b1-4)]Man(a1-3)[Gal(b1-4)GlcNAc(b1-2)Man(a1-6)]Man(b1-4)GlcNAc(b1-4)GlcNAc
# In short: as §1
# [27] = molecular target: Gal(b1-4)GlcNAc(b1-2)[Gal(b1-4)GlcNAc(b1-4)]Man(a1-3)[Gal(b1-4)GlcNAc(b1-2)[Gal(b1-4)GlcNAc(b1-6)]Man(a1-6)]Man(b1-4)GlcNAc(b1-4)GlcNAc
# In short: as §1
# [28] = molecular target: Gal(b1-4)GlcNAc(b1-2)[Gal(b1-4)GlcNAc(b1-4)]Man(a1-3)[GlcNAc(b1-4)][Gal(b1-4)GlcNAc(b1-2)Man(a1-6)]Man(b1-4)GlcNAc(b1-4)GlcNAc
# In short: as §1
# [29] = molecular target: Gal(b1-4)GlcNAc(b1-2)[Gal(b1-4)GlcNAc(b1-4)]Man(a1-3)[GlcNAc(b1-4)][Gal(b1-4)GlcNAc(b1-2)[Gal(b1-4)GlcNAc(b1-6)]Man(a1-6)]Man(b1-4)GlcNAc(b1-4)GlcNAc
# In short: as §1
# [30] = molecular target: Gal(b1-4)GlcNAc(b1-2)[Gal(b1-4)GlcNAc(b1-6)]Man(a1-6)[Gal(b1-4)GlcNAc(b1-2)Man(a1-3)]Man(b1-4)GlcNAc(b1-4)GlcNAc
# In short: as §1
# [31] = molecular target: Gal(b1-4)GlcNAc(b1-2)[Gal(b1-4)GlcNAc(b1-6)]Man(a1-6)[Gal(b1-4)GlcNAc(b1-2)Man(a1-3)]Man(b1-4)GlcNAc(b1-4)[Fuc(a1-6)]GlcNAc
# In short: as §1
# [32] = molecular target: Gal(b1-4)GlcNAc(b1-2)[Gal(b1-4)GlcNAc(b1-6)]Man(a1-6)[GlcNAc(b1-4)][Gal(b1-4)GlcNAc(b1-2)Man(a1-3)]Man(b1-4)GlcNAc(b1-4)GlcNAc
# In short: as §1
# [33] = molecular target: Gal(b1-4)GlcNAc(b1-2)[Gal(b1-4)GlcNAc(b1-6)]Man(a1-6)[GlcNAc(b1-4)][Gal(b1-4)GlcNAc(b1-2)[Gal(b1-4)GlcNAc(b1-4)]Man(a1-3)]Man(b1-4)GlcNAc(b1-4)[Fuc(a1-6)]GlcNAc
# In short: as §1
# [34] = molecular target: Gal(b1-4)GlcNAc(b1-3)Gal(b1-3)GalNAc
# In short: as §1
# [35] = molecular target: Gal(b1-4)GlcNAc(b1-3)Gal(b1-3)GlcNAc
# In short: as §1
# [36] = molecular target: Gal(b1-4)GlcNAc(b1-3)Gal(b1-4)Glc
# In short: as §1
# [37] = molecular target: Gal(b1-4)GlcNAc(b1-3)Gal(b1-4)GlcNAc
# In short: as §1
# [38] = molecular target: Gal(b1-4)GlcNAc(b1-3)Gal(b1-4)GlcNAc(b1-2)Man(a1-3)[Gal(b1-4)GlcNAc(b1-3)Gal(b1-4)GlcNAc(b1-2)Man(a1-6)]Man(b1-4)GlcNAc(b1-4)GlcNAc
# In short: as §1
# [39] = molecular target: Gal(b1-4)GlcNAc(b1-3)Gal(b1-4)GlcNAc(b1-2)Man(a1-3)[Gal(b1-4)GlcNAc(b1-3)Gal(b1-4)GlcNAc(b1-2)Man(a1-6)]Man(b1-4)GlcNAc(b1-4)[Fuc(a1-6)]GlcNAc
# In short: as §1
binder,measurement,setting,value
B1,glycan array binding signal (z-score),[1],-0.113
same,glycan array binding signal (z-score),Gal(b1-3)GlcNAc6S,0.706
same,glycan array binding signal (z-score),[2],-0.298
same,glycan array binding signal (z-score),[3],-0.553
same,glycan array binding signal (z-score),[4],0.231
same,glycan array binding signal (z-score),[5],1.31
same,glycan array binding signal (z-score),[6],-0.586
same,glycan array binding signal (z-score),[7],0.53
same,glycan array binding signal (z-score),[8],-0.337
same,glycan array binding signal (z-score),[9],-0.778
same,glycan array binding signal (z-score),[10],-0.282
same,glycan array binding signal (z-score),[11],-0.258
same,glycan array binding signal (z-score),Gal(b1-4)Gal,0.332
same,glycan array binding signal (z-score),[12],-0.578
same,glycan array binding signal (z-score),[13],-0.308
same,glycan array binding signal (z-score),Gal(b1-4)Glc,-0.573
same,glycan array binding signal (z-score),Gal(b1-4)Glc6S,-0.008
same,glycan array binding signal (z-score),Gal(b1-4)GlcNAc,-0.294
same,glycan array binding signal (z-score),[14],1.28
same,glycan array binding signal (z-score),Gal(b1-4)GlcNAc(b1-2)Man,-0.551
same,glycan array binding signal (z-score),[15],0.396
same,glycan array binding signal (z-score),[16],1.65
same,glycan array binding signal (z-score),[17],0.993
same,glycan array binding signal (z-score),[18],0.917
same,glycan array binding signal (z-score),[19],0.025
same,glycan array binding signal (z-score),[20],0.359
same,glycan array binding signal (z-score),[21],-0.543
same,glycan array binding signal (z-score),[22],0.952
same,glycan array binding signal (z-score),[23],-0.174
same,glycan array binding signal (z-score),[24],-0.259
same,glycan array binding signal (z-score),[25],-0.027
same,glycan array binding signal (z-score),[26],0.107
same,glycan array binding signal (z-score),[27],0.733
same,glycan array binding signal (z-score),[28],-0.614
same,glycan array binding signal (z-score),[29],0.486
same,glycan array binding signal (z-score),[30],0.513
same,glycan array binding signal (z-score),[31],0.317
same,glycan array binding signal (z-score),[32],-1.09
same,glycan array binding signal (z-score),[33],-0.025
same,glycan array binding signal (z-score),[34],-0.258
same,glycan array binding signal (z-score),[35],-0.787
same,glycan array binding signal (z-score),[36],0.279
same,glycan array binding signal (z-score),[37],-0.893
same,glycan array binding signal (z-score),[38],2.09
same,glycan array binding signal (z-score),[39],-0.043

# Quoted at random: two entries already listed
binder,measurement,setting,value
B1,glycan array binding signal (z-score),[2],-0.298
same,glycan array binding signal (z-score),[12],-0.578
